# Article doi:10.1101/2020.03.13.990168
# These are yes or no findings as the source states them, for the method shown. Binding seen in cells or lysates may run through a third protein. A yes stands for co-enrichment or nearness to the bait. Other partners may have been found.
# B1: ribosomal protein S6 of the 30S ribosomal subunit (protein, UniProt A1KEM1 1-96)
# chain: MRPYEIMVILDPTLDERTVAPSLETFLNVVRKDGGKVEKVDIWGKRRLAYEIAKHAEGIYVVIDVKAAPATVSELDRQLSLNESVLRTKVMRTDKH
# B2: ribosomal protein S17 of the 30S ribosomal subunit (protein, UniProt O06051 1-135)
# chain: MAEAKTGAKAAPRVAKAAKAAPKKAAPNDAEAIGAANAANVKGPKHTPRTPKPRGRRKTRIGYVVSDKMQKTIVVELEDRMRHPLYGKIIRTTKKVKAHDEDSVAGIGDRVSLMETRPLSATKRWRLVEILEKAK
# B3: ribosomal protein L30 of the 50S ribosomal subunit (protein, UniProt A1KGK3 1-65)
# chain: MSQLKITQVRSTIGARWKQRESLRTLGLRRIRHSVIREDNAATRGLIAVVRHLVEVEPAQTGGKT
# Target: HflX (GTPase HflX of M. bovis BCG) (M. bovis BCG (endogenous in M. bovis BCG))
# Test: affinity purification with mass spectrometry
row,Binder,binding
1,B1,binds
2,B2,binds
3,B3,binds
